One sequence from article PMC5996148 can be followed below.

“And” between values parts separate entries of the source, which are not always exact repeats. Equal values may be shown once. The list shows a part of the results. For some assays here: The exact form of the protein is not confirmed.

Assay in all cases: protein microarray (ProtoArray v5.0), streptavidin-Alexa Fluor 647
Common to all, as to conditions: 3'-biotin; 20 mM Tris (pH 7.5), 5 mM MgCl2, 100 mM KCl, 0.1% Tween-20, A/T-rich and random oligonucleotide blockers; temperature not stated; high values mean tight binding

For assay [1], the system named is FAM131C (human).
For assay [2], the system named is FAM136A (human).
The subject of assay [3] is FAM26A (human).
Assay [4] has as its system FAM3A (human).
Assay [5] deals with FAM44B (human).
Assay [6] has as its system FAM80A (human).
Assay [7] relates to FAM82C (human).
The test system of assay [8] is FAM9C (human).
In assay [9] the test system is FANCG (human).
The subject of assay [10] is FANCI (human).
Assay [11] concerns the target FANCM (UniProt Q8IYD8).
In assay [12] the target is FAU (UniProt P62861).
Assay [13] concerns the target T1, FBXL16 (UniProt Q8N461).
T1 sequence: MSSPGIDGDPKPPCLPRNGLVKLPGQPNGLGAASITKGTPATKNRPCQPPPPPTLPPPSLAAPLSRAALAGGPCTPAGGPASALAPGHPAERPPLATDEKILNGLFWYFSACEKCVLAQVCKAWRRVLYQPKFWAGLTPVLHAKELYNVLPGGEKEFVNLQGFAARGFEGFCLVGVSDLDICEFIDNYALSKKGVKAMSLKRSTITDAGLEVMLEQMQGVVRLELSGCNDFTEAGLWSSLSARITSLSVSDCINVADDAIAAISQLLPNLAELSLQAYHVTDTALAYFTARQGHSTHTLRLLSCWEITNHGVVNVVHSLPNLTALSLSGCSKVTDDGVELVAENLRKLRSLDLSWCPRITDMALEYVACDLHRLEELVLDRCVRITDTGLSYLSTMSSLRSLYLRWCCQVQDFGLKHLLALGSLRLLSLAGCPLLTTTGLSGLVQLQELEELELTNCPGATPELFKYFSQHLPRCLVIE

Assay [14] deals with T2, FBXO36 (UniProt Q8NEA4).
T2 sequence: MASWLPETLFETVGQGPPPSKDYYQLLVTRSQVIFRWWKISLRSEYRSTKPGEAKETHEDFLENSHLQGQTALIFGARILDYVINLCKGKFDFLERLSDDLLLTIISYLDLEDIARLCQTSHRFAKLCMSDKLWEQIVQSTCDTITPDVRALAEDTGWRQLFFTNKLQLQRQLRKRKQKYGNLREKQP

Assay [15] has as its system FBXO4 (human).
Assay [16] concerns FBXO6 (human).
The subject of assay [17] is FCGR3A (human).
The test system of assay [18] is FCRL2 (human).
The test system of assay [19] is FDFT1 (human).
Assay [20] has as its target FGF12 (UniProt P61328).

With “GGGGACAGGGGTATGGGGAGGGG [G4-3 biotinylated (CtG)]”, the binding signal was -0.325 z-score in assay [1]; -0.328 z-score in assay [2]; -0.329 z-score in [3]; -0.332 z-score in assay [4]; -0.349 z-score in assay [5]; -0.32 z-score in assay [6]. Also, the binding signal was -0.325 z-score in [7]; -0.308 z-score in assay [8]; -0.332 z-score in [9]; -0.343 z-score in [10]; 4.36 z-score in assay [11]; 8.88 z-score in assay [12]. Moreover, the binding signal in assay [13] was -0.312 z-score; in assay [14] it was -0.313 z-score; in [15], -0.333 z-score; in assay [16], -0.316 z-score; in [17], -0.319 z-score; in assay [18] it was -0.311 z-score. Also, the binding signal in assay [19] was -0.339 z-score; in [20], 8.02 z-score and 8.31 z-score.
